PubChem BioAssay AID652243 | Drosophila RNAi Screening Center | 2013
The deposit covers about 24,000 reagents; below is an unselected part of those that have a named target and a result. Of all reagents, 246 (1%) are marked active. 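Plates not normalised; calls are printed but the firefly/Renilla ratio behind them is not deposited; fold cut for lowering reported inconsistently.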 Raw values are not corrected between plates. The numbers tell different reagents against one gene apart. A plus sign joins genes that one reagent is predicted to hit. Not given: the amount of reagent.

Screen: 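Fly genes required for human androgen receptor driven transcription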 (primary screen)
Cells: Drosophila S2R+ cells
Reagent: long dsRNA against Drosophila genes
Timing: 72 h (48 h, then 24 h hormone)
Treatment: synthetic androgen R1881 at 10 nM for 24 h
Measurement: 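Firefly light from an androgen-responsive reporter and Renilla control light per well, raw and unnormalised, for each of two replicates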
Scale: firefly reporter light: higher = more light from androgen-responsive reporter; Renilla control light: higher = more constitutive control signal (cell number, transfection)
Rule for the call: 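Across duplicate plates, a knock-down whose log firefly/Renilla ratio shifted a set fold down or up from the GFP/LacZ control mean was a hit; the downward cut appears as both 1.5 and 3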
Calls: active = hit: reporter lowered or raised; inactive = no hit

gene,dsRNA no.,"firefly reporter light, replicate 1","firefly reporter light, replicate 2","Renilla control light, replicate 1","Renilla control light, replicate 2",call
CG17283,1,95711,47291,1.41e6,1.13e6,inactive
Cp7Fa (Chorion protein a at 7F),1,3.28e5,4.28e5,2.07e6,2.03e6,inactive
Cp7Fa (Chorion protein a at 7F),2,2.28e5,1.75e5,1.27e6,1.78e6,inactive
Cp7Fa (Chorion protein a at 7F),3,7.01e5,7.46e5,1.69e6,1.76e6,inactive
CG12341,1,3.97e5,3.54e5,2.78e6,1.67e6,inactive
Dyrk3 (Dual-specificity tyrosine phosphorylation-regulated kinase 3),1,3.50e5,4.64e5,2.60e6,2.65e6,inactive
Dyrk3 (Dual-specificity tyrosine phosphorylation-regulated kinase 3),2,,,,,inactive
Dyrk3 (Dual-specificity tyrosine phosphorylation-regulated kinase 3),3,,,,,inactive
Gli (Gliotactin),1,2.35e5,2.07e5,1.80e6,2.24e6,inactive
LanA (Laminin A),1,1.20e6,8.37e5,1.47e6,1.30e6,inactive
CG34002,1,4.41e5,5.87e5,3.24e5,3.52e5,inactive
CG42514,1,21901,23272,2.62e5,2.14e5,inactive
Obp99a (Odorant-binding protein 99a),1,1.07e5,2.12e5,1.20e6,2.21e6,inactive
KdelR (KDEL receptor),1,9.48e5,1.13e6,9.43e5,1.24e6,inactive
Or98P (Odorant receptor 98a pseudogene),1,5.93e5,9.73e5,1.09e6,1.49e6,inactive
Or98P (Odorant receptor 98a pseudogene),2,3.63e5,4.59e5,8.92e5,7.96e5,inactive
Tmem131 (Transmembrane protein 131),1,1.55e6,1.10e6,2.01e6,1.26e6,inactive
CG4666,1,4.50e5,4.91e5,2.44e6,3.11e6,inactive
daed + CG34174,1,3.59e5,2.09e5,6.77e5,7.82e5,inactive
CG7966,1,68408,48156,5.94e5,2.74e5,inactive
CG18605,1,1.21e5,1.65e5,1.85e6,1.83e6,inactive
CG18605,2,2.58e5,2.16e5,6.14e5,6.43e5,inactive
Cdc6 (Cell division cycle 6),1,7.17e5,9.13e5,8.10e5,1.39e6,inactive
luna,1,2.02e5,1.80e5,6.60e5,6.03e5,inactive
luna,2,2.96e5,3.61e5,5.49e5,5.86e5,inactive
AQP (aquaporin),1,2.55e5,2.75e5,1.56e6,1.78e6,inactive
CG4009,1,1.55e5,1.54e5,1.98e6,2.23e6,inactive
ck (crinkled),1,1.03e6,7.73e5,1.49e6,1.35e6,inactive
CG3061,1,96238,66459,2.07e6,1.17e6,inactive
CG3061,2,3.21e5,2.56e5,7.10e5,4.06e5,inactive
Not11 (CCR4-NOT transcription complex subunit 11),1,2.12e5,2.41e5,1.80e6,1.87e6,inactive
Nepl13 (Neprilysin-like 13),1,1.63e5,1.77e5,2.06e6,2.13e6,inactive
CG30002,1,3.69e5,3.89e5,4.67e5,4.51e5,inactive
CG30002,2,4.72e5,5.33e5,5.19e5,6.51e5,inactive
Lime (Linking immunity and metabolism),1,4.28e5,3.68e5,3.00e6,2.74e6,inactive
tre-2 (retired record),1,6.86e5,4.76e5,1.74e6,1.21e6,inactive
tst + CG10375,1,98620,34490,5.92e5,3.75e5,inactive
CG16704,1,1.00e5,1.60e5,8.18e5,1.35e6,inactive
Sclp,1,1.13e5,88914,1.02e6,7.97e5,inactive
CG33514,1,6.77e5,7.05e5,2.66e6,2.48e6,inactive
CG33514,2,1.30e5,1.28e5,1.37e6,1.78e6,inactive
CG33514,3,5.89e5,5.25e5,2.55e6,2.34e6,inactive

4 successive records already listed, for reference:
gene,dsRNA no.,"firefly reporter light, replicate 1","firefly reporter light, replicate 2","Renilla control light, replicate 1","Renilla control light, replicate 2",call
Dyrk3 (Dual-specificity tyrosine phosphorylation-regulated kinase 3),3,,,,,inactive
Gli (Gliotactin),1,2.35e5,2.07e5,1.80e6,2.24e6,inactive
LanA (Laminin A),1,1.20e6,8.37e5,1.47e6,1.30e6,inactive
CG34002,1,4.41e5,5.87e5,3.24e5,3.52e5,inactive
